The target in the experiment is chimeric mouse AXL ECD with human Ig1 domain, His-tagged (human; mouse) (UniProt Q00993). The experiment is described as follows: BLI (Octet), His-tagged chimeric protein captured on Anti-Penta-HIS sensors. A general note: BLI is a label-free optical method that tracks binding on a fibre tip over time.

These are yes or no findings as the source states them, for the method shown. Some entries that bind do so weakly or less than the wild type.

B1: 22995 (antibody, human IgG1, kappa, L234A L235A, V domains shown)
VH: EVQLVESGGSLVQPGGSLRLSCAASGFTFSSSAMSWVRQAPGKGLEWVSTISGSDSSTYDADSVKGRSTISRDNSKNTLYLQMNSLRADDTAVYYCAKKGAYCSGTICYDPFDYWGQGTLVTVSS
VL: DIVLTQSPVLAVSLGQRATISCRASQSVSISSINLMHWYQQKPGQQPKLLIYRASNLASGIPARFSGSGSGTDFTLTIDPVQADDIAAYYCQQSRESPLTFGGGTKVEIKR
B1: the binding entry is “binds”.
